# Data as given in the supplement of paper PMC8104966.
# This is one part of the list. Single values are uncertain here, since repeats match poorly.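 U2OS cells expressing ACE2 were combined with U2OS cells expressing full-length spike, and imaging quantified fusion as the fraction of nuclei displaying both cell types' fluorescent markers. Non-toxic compounds with a fusion z-score under -3, i.e., over three standard deviations below the plate's DMSO wells, are called inhibitory hits.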
# System: U2OS ACE2 x SARS-CoV-2 spike co-culture
# Test: cell-cell fusion (fraction fused) z-score vs plate DMSO control; higher = more fusion
# Details: 30 µM; 5 h; toxicity class: non-toxic, passed QC
row,SMILES,cell-cell fusion (z-score)
1,O=C1O[C@H]([C@@H](O)CO)C(O)=C1O [L(+)-Ascorbic acid],inactive: 4.34
2,COc1cccc([C@]2(O)CCCC[C@H]2CN(C)C)c1.Cl,inactive: 3.87
3,Clc1ccc(CSC(Cn2ccnc2)c2ccc(Cl)cc2Cl)cc1.O=[N+]([O-])O (configuration not stated) [Sulconazole Nitrate],inactive: -2.07
4,Cl.NC[C@@H]1O[C@H](c2ccccc2)Cc2c1ccc(O)c2O,inactive: -0.688
5,COc1ccc(CN(CCN(C)C)c2ccccn2)cc1.O=C(O)/C=C\C(=O)O,inactive: 1.95
6,COc1ccc(CN(CCN(C)C)c2ccccn2)cc1.O=C(O)/C=C\C(=O)O [Pyrilamine maleate],inactive: 2.09
7,NS(=O)(=O)c1cc2c(cc1C(F)(F)F)NC(Cc1ccccc1)NS2(=O)=O (configuration not stated) [Bendroflumethiazide],inactive: 1.7
8,CC1(C)S[C@@H]2[C@H](NC(=O)[C@H](N)c3ccc(O)cc3)C(=O)N2[C@H]1C(=O)O [Amoxicillin],inactive: 1.79
9,O=C(CCCN1CC=C(n2c(=O)[nH]c3ccccc32)CC1)c1ccc(F)cc1,inactive: -1.45
10,COC(=O)c1ccc(O)c(NC(=O)COc2ccc(C34CC5CC(CC(C5)C3)C4)cc2)c1 [Hypoxia Inducible Factor-1α Inhibitor],inactive: 0.989
11,NC(Cc1ccc(Cl)cc1)C(=O)O (racemic) [(±)-p-Chlorophenylalanine],inactive: 1.76
12,CN(C)C(=O)C(CCN1CCC(O)(c2ccc(Cl)cc2)CC1)(c1ccccc1)c1ccccc1.Cl [Loperamide hydrochloride],inactive: 0.0728
13,O=C1c2ccccc2C(=O)C1c1ccc(Cl)cc1,inactive: 2.14
14,C[N+](C)(C)CCCCCC[N+](C)(C)C.[Br-].[Br-],inactive: 2.98
15,C[N+](C)(C)CCCCCC[N+](C)(C)C.[Br-].[Br-] [Hexamethonium bromide],inactive: 3.97
16,CN1CCc2cc(NC(=O)Nc3cccnc3)ccc21.Cl,inactive: 2.54
17,CC(C)(C)c1ccc(/C=C/C(=O)Nc2ccc3c(c2)OCCO3)cc1,active: -17
18,CC(C)C[C@H](NC(=O)C1OC1C(=O)O)C(=O)NCCCCNC(=N)N (some centres not stated),inactive: 1.52
19,Clc1ccc(COC(Cn2ccnc2)c2ccc(Cl)cc2Cl)c(Cl)c1.O=[N+]([O-])O (configuration not stated) [Miconazole nitrate],active: -3.2
20,CC(C)NC(=N)NC(=N)Nc1ccc(Cl)cc1.Cl [Proguanil hydrochloride],inactive: 1.74
21,CC(C)c1ccc2oc3nc(N)c(C(=O)O)cc3c(=O)c2c1,inactive: 2.21
22,C[C@H](CCC(=O)NCCS(=O)(=O)O)[C@H]1CC[C@H]2[C@@H]3[C@@H](O)C[C@@H]4C[C@H](O)CC[C@]4(C)[C@H]3CC[C@]12C [Tauroursodeoxycholic Acid],inactive: 0.888
23,CCN1CCc2nc(N)oc2CC1.Cl.Cl [B-HT 933 dihydrochloride],inactive: 2.72
24,COC(=O)/C=C/C(C)=C/C=C/C(C)=C/C=C/C=C(C)/C=C/C=C(C)/C=C/C(=O)O,inactive: 2.04

row,SMILES,cell-cell fusion (z-score)
1,NC(=O)c1noc([C@H](CCCC2CCCCC2)CC(=O)NO)n1,inactive: 2.37
2,O=C(Cc1ccccc1)NO,inactive: 2.86
3,Cc1cc(=O)[nH]c(=S)[nH]1,inactive: 0.0667
4,CC1=NN(c2ccccc2)C(=O)C1 [Edaravone],inactive: 0.365
5,CC1=NN(c2ccccc2)C(=O)C1,inactive: 3.1
6,Cl.N=C(N)NC(=N)N1CCOCC1,inactive: 2.03
7,Cl.N[C@@H](CCC(=O)O)C(=O)O [L-Glutamic acid hydrochloride],inactive: 0.596
8,C[C@]12CC[C@H](O)CC1=CC[C@@H]1[C@@H]2CC[C@]2(C)C(c3cccnc3)=CC[C@@H]12 [Abiraterone],inactive: 2.34
9,CC[C@@]1(O)C(=O)OCc2c1cc1n(c2=O)Cc2cc3c(CN(C)C)c(O)ccc3nc2-1.Cl,inactive: 3.58
10,CN1CCCCC1CCN1c2ccccc2Sc2ccc(S(C)=O)cc21.O=S(=O)(O)c1ccccc1 (configuration not stated),inactive: 2.59
11,CC(C)[N+]1(C)[C@@H]2CC[C@H]1C[C@@H](OC(=O)C(CO)c1ccccc1)C2.O.[Br-] (some centres not stated) [Ipratropium bromide monohydrate],inactive: 1.32
12,Cl.NC1=NCC2c3ccccc3Cc3ccccc3N12 (configuration not stated) [Epinastine HCl],inactive: 2.61
13,COc1cc(Cc2cnc(N)nc2N)cc(OC)c1OC [Trimethoprim],inactive: 0.473
14,CC(=O)Nc1nnc(S(N)(=O)=O)s1 [Acetazolamide],inactive: 2.07
15,CN(C)c1ccccc1CN1CCCN(Cc2ccccc2N(C)C)C1c1ccncc1,inactive: 1.88
16,Cn1cnc([N+](=O)[O-])c1Sc1[nH]cnc2ncnc1-2,inactive: 0.856
17,COc1cc(OC)c2c(=O)c(OC)c(-c3ccccc3)oc2c1,inactive: 1.06
18,CC1(C)C(=O)C=C[C@@]2(C)C1=C(O)C(=O)[C@]1(C)C2CC[C@@]2(C)[C@H](c3ccoc3)C[C@H]3O[C@]321 (some centres not stated),inactive: 0.898
19,O=C1NC(=O)/C(=C/c2ccc3c(c2)OC(F)(F)O3)S1,inactive: 0.0313
20,CC(=O)OCC(=O)[C@@]1(O)CCC2C3CCC4=CC(=O)CC[C@]4(C)[C@@]3(F)[C@@H](O)C[C@@]21C (some centres not stated),inactive: 0.101
21,COc1cc(C(=O)NC(=S)Nc2cccc(NC(=O)c3ccccc3)c2)cc(OC)c1OC,inactive: 1.66
22,O=c1c(O)c(-c2ccc(O)c(O)c2)oc2cc(O)cc(O)c12,inactive: 1.73
23,Cc1cn([C@H]2C[C@H](N=[N+]=[N-])[C@@H](CO)O2)c(=O)[nH]c1=O [Zidovudine],inactive: 2.69

# 2 entries from above, as tab-separated lines:
row	SMILES	cell-cell fusion (z-score)
6	Cl.N=C(N)NC(=N)N1CCOCC1	inactive: 2.03
18	CC1(C)C(=O)C=C[C@@]2(C)C1=C(O)C(=O)[C@]1(C)C2CC[C@@]2(C)[C@H](c3ccoc3)C[C@H]3O[C@]321 (some centres not stated)	inactive: 0.898
